# This is one part of the list. For some of these results: The exact form of the protein is not confirmed.
# Amino acid sequences for entries named in this document (tags omitted). A change or cut given only in a name is not applied to a line headed by its entry.
# UniProt P41250: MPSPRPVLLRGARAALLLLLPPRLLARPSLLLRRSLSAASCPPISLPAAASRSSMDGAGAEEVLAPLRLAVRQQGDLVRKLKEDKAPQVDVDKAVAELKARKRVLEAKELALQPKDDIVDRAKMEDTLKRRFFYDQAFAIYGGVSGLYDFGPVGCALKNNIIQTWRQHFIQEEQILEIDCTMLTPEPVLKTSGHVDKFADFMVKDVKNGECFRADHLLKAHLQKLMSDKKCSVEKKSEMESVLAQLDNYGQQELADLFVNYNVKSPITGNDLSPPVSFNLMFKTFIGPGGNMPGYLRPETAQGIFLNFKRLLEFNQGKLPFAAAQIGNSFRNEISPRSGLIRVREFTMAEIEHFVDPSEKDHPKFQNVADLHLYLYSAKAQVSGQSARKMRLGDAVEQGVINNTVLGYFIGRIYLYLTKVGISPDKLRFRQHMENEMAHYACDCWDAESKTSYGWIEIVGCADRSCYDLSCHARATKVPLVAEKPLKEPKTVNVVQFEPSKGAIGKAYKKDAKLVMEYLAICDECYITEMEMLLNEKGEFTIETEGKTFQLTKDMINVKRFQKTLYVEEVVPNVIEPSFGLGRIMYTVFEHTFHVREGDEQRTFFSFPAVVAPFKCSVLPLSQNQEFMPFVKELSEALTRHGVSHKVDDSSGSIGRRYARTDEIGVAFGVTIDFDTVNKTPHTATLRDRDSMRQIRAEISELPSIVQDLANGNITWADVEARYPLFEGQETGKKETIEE
# How the values were obtained:
# Assay in all cases: protein microarray (ProtoArray v5.0), streptavidin-Alexa Fluor 647
# Conditions in all cases: 3'-biotin; 20 mM Tris (pH 7.5), 5 mM MgCl2, 100 mM KCl, 0.1% Tween-20, A/T-rich and random oligonucleotide blockers; temperature not stated; high values mean tight binding
# GAPDHS (human) = tested on: GAPDHS (human)
# GARS = GARS (UniProt P41250)
# GAST (human) = tested on: GAST (human)
# GATA3 (human) = tested on: GATA3 (human)
# GBE1 (human) = tested on: GBE1 (human)
# GBP1 (human) = tested on: GBP1 (human)
# GBP6 (human) = tested on: GBP6 (human)
# GCA (human) = tested on: GCA (human)
# GCHFR (human) = tested on: GCHFR (human)
# GDF2 (human) = tested on: GDF2 (human)
sequence,measurement,setting,value
GGGAGGCTGAGGCAGG [G4-1 biotinylated (PQS2)],binding signal,GAPDHS (human),-0.343 z-score
same,binding signal,GARS,-0.322 z-score
same,binding signal,GAST (human),-0.332 z-score
same,binding signal,GATA3 (human),-0.306 z-score
same,binding signal,GBE1 (human),-0.286 z-score
same,binding signal,GBP1 (human),-0.33 z-score
same,binding signal,GBP6 (human),-0.337 z-score
same,binding signal,GCA (human),-0.345 z-score
same,binding signal,GCHFR (human),-0.305 z-score
same,binding signal,GDF2 (human),-0.299 z-score
